Assay results reported in PMC7431833.

Protein sequences, listed by entry. Tags and fused reporters are not part of them. Residues count along the entry.
UniProt P56817, residues 46-501: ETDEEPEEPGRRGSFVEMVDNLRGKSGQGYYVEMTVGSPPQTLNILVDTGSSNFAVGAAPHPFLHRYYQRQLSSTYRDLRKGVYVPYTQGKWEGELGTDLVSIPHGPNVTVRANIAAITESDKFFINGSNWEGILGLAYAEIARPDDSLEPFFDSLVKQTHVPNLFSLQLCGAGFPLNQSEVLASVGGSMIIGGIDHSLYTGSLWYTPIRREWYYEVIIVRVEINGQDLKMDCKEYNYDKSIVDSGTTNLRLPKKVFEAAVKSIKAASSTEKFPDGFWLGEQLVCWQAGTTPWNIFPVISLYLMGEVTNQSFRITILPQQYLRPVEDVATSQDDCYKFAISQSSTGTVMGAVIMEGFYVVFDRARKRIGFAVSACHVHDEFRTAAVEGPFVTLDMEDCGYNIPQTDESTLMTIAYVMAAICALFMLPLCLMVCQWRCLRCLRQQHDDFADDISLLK

Target: T1, Flag-SIRT2 (Sirtuin 2) (UniProt Q8IXJ6)
T1 sequence: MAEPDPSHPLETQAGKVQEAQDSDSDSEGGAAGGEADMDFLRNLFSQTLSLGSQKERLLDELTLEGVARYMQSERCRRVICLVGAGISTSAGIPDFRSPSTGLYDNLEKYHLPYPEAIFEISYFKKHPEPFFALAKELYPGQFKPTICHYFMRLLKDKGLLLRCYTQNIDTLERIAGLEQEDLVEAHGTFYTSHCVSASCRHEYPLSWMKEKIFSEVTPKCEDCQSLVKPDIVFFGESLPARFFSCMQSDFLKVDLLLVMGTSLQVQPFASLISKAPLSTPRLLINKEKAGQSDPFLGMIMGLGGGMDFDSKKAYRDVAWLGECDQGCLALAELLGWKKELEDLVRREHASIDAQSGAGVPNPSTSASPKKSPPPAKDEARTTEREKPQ
Experiment: affinity purification with mass spectrometry; whole-cell lysates of SY5Y cells transfected with Flag-SIRT2 or vector, IPed by Flag-conjugated beads, eluted with 3× Flag peptide, trypsin digest, MS (Q Exactive), search against human UniProt Swiss-Prot

binding: no binding
Substance: BACE1 (β‐secretase 1), endogenous (from UniProt P56817 46-501) (enzyme)

These are yes or no findings as the source states them, for the method shown. Binding seen in cells or lysates may run through a third protein. A yes stands for co-enrichment or nearness to the bait. Other partners may have been found. A no says only that the protein was not detected with the bait. Where a sequence is shown, tags or fusion partners need not be part of it.
